Experimental data reported in patent publication US20110159304A1, “ANTI-SULPHATE REDUCING BACTERIA COMPOSITION COMPRISING 1,2-BENZISOTHIAZOL-3(2H)-ONE, IRGASAN, BENZYL-2-BROMOACETATE, 2,2-DIBROMO-2-CYANOACETAMIDE, AND 2-BROMO-2-NITROPROPAN-1,3-DIOL” (KOREA GAS CORPORATION, priority 2009, published 2011).
At least one read-out could not be matched to a standard name with certainty. Some entries share one result that the patent states for a list of compounds.

System: Desulfovibrio desulfuricans KCTC 5786
Assay: Antibacterial activity evaluation, paper disk clear zone and MIC
Assay type: cell-based
Conditions: paper disk test, concentrations 1.0-0.001%, 37° C.
Procedure: Desulfovibrio desulfuricans KCTC 5786 was used as a test sulphate reducing bacteria strain.
The all materials used in the test, disk paper, medium and so on, were sterilized for 15 min at 121° C. Bacteria's culture and antibacterial activity test were performed in an anaerobic chamber (Anaerobic System, Form a Sci; condition maintaining not more than 5 ppm of oxygen concentration).
After culturing the test strain for not less than 3 days, the volume of the culture was adjusted to 10^5-7/mL to prepare for plating it on Desulfovibrio medium, and the test compounds were resolved in a suitable solvent for use (ethanol for lipid soluble compounds, and distilled water for water soluble compounds).
The experiment proceeded with varying the concentration of the compounds used in the experiment to 1.0%, 0.1%, 0.01%, and 0.001%. The 8 mm of a paper disk was placed on the plate prepared by plating the culture, and were inoculated with 50 μl of various concentrations of the compound. After culturing the strain for 24, and 48 hrs at 37° C., the clear zone (mm) representing antibacterial activity was measured and Minimum Inhibitory Concentration (MIC) was determined.

Structure (SMILES) | MIC minimum inhibitory concentration | MIC minimum inhibitory concentration (96%) [%] | MIC minimum inhibitory concentration (listed as benzyl-2-bromoacetate) | MIC minimum inhibitory concentration (98%) [%] | MIC minimum inhibitory concentration (97%) [%]
N#CC(Br)(Br)C(N)=O [2,2-dibromo-2-cyanoacetamide] | less than 0.01% | ≤ 0.001 | – | – | –
O=C(CBr)OCc1ccccc1 [Benzyl-2-bromoacetate, benzyl-2-bromoacetate] | 0.001% | – | less than 0.01% | – | –
O=[N+]([O-])C(Br)(CO)CO [2-bromo-2-nitropropan-1,3-diol] | less than 0.01% | – | – | 0.01 | –
O=c1[nH]sc2ccccc12 [1,2-benzisothiazol-3(2H)-one] | less than 0.01% | – | – | – | 0.001
